Measurements reported in PubChem BioAssay AID485298 (National Center for Advancing Translational Sciences (NCATS), 2010).
In all, about 320,000 compounds went through this assay and about 740 (0.23%) were called active. Inconclusive results, whose numbers are uncertain, are shown with a selection of clear calls. Calls come from the whole dose curve; as a rule, active = well fitted activation curve with a large enough effect; inconclusive = small, poorly fitted or top-dose-only effect; inactive = no such curve, though single readings can be large or run the other way. Potencies beside an inconclusive call are fits to weak or partial responses and may not hold up. Where a structure was tested more than once in an assay, its records may differ in their call.

Test: qHTS Assay for Small Molecule Inhibitors of Mitochondrial Division or Activators of Mitochondrial Fusion; note: nearly all actives have a fitted effect of over 45% in size
Conditions: S. cerevisiae fusion-defective mutant growth rescue, CellTiterGlo 48 h; series mostly up to 46.1 µM
In short: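 Temperature-sensitive fusion-defective S. cerevisiae (e.g. fzo1-1, mgm1-5) were grown with compound in YPEG medium (3% ethanol, 3% glycerol) for 48 hours at 37C. Growth rescue was measured as viability by CellTiterGlo luminescence after 10 minutes at ambient.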
Potency is the fitted concentration of half-maximal effect.

Row | SMILES | Potency
1 | CN(c1ccc(O)cc1)c1nc(-c2ccccc2)cs1 | inconclusive: 12.6 µM [activator, partial curve]
2 | O=S(Cc1ccc(Br)cc1)Cc1nnc(SCc2c(F)cccc2Cl)n1-c1ccccc1 (stereo not drawn) | inconclusive: 31.6 µM [activator, single point]
3 | O=c1/c(=C/c2ccc(O)cc2)sc2nc3cc(Br)cnc3n12 | inconclusive: 35.5 µM [activator, single point]
4 | COc1ccccc1N1CCN(C(=O)CCCNC(=O)Cn2cnc3sc(C)c(C)c3c2=O)CC1 | inactive
5 | CN(CC(=O)Nc1ccc(Cl)cc1)C(=O)c1cc(-c2cccs2)nn1-c1ccccc1 | inconclusive: 14.1 µM [activator, single point]
6 | COc1ccc(-c2nc(C3CCCCC3)c3cc(OC)ccc3n2)cc1 | inactive
7 | Cc1cccc(CSCCNC(=O)CCSc2ccccc2)c1 | inconclusive: 35.5 µM [activator, partial curve]
8 | Cc1onc(-c2c(Cl)cccc2Cl)c1C(=O)NCc1cccs1 | inconclusive: 35.5 µM [activator, single point]
9 | Cc1[nH]c2ccccc2c1C(=O)CSC(=S)N(C)C1CCCCC1 | inconclusive: 10 µM [activator, partial curve]
10 | Cc1csc(NC(=O)CCCSc2nc3ccccc3s2)n1 | inconclusive: 22.4 µM [activator, single point]
11 | COc1cccc(C2C=C(Nc3ccccc3)C(=O)N2c2ccccc2)c1 (stereo not drawn) | inactive
12 | C=C(C)CSc1nnc(-c2ccc(OC)cc2)n1N | inactive
13 | NC(=O)c1ccccc1NC(=O)c1ccc2c(c1)OCO2 | inactive
14 | O=S(=O)(Nc1ccc2c(c1)OCO2)c1ccc(Br)s1 | inconclusive: 22.4 µM [activator, single point]
15 | Cc1ccccc1CSc1nnc2ccc(-c3ccncc3)nn12 | inconclusive: 17.8 µM [activator, partial curve]
16 | O=C(NCC1CCCN1S(=O)(=O)c1cccs1)c1cccc([N+](=O)[O-])c1 (stereo not drawn) | inconclusive: 31.6 µM [activator, single point]
17 | O=C(COC(=O)c1c(Cl)cccc1Cl)Nc1ccccc1Br | inconclusive: 14.1 µM [activator, single point]
18 | CCC(=O)n1nc(-c2ccccc2)nc1NCc1ccccc1 | inactive
19 | FC(F)(F)c1cnc2c(c1)[nH]c(=S)n2-c1ccc(Cl)cc1 | inactive
20 | COc1ccc(S(=O)(=O)Nc2ccc3ccccc3c2)cc1C | inconclusive: 22.4 µM [activator, single point]
21 | NC(=O)CSc1nc2c(sc3ccccc32)c(=O)n1CCCN1CCOCC1 | inactive
22 | N#C/C(=C(/O)CSc1nnc(Cc2cccs2)n1C1CCCCC1)c1nc2ccccc2[nH]1 | inconclusive: 6.31 µM [activator, single point]
23 | CCc1ccc(OCC(=O)NNC(=S)NC(=O)C2CCCCC2)c(Br)c1 | inactive
24 | Cc1sc(NC(=O)c2cc3ccccc3oc2=O)c(C(=O)OC(C)C)c1-c1ccccc1 | inconclusive: 6.31 µM [activator, single point]
25 | C/C=C(/C)C(=O)OC(C)(C)[C@@H]1Cc2c(ccc3ccc(=O)oc23)O1 | inconclusive: 12.6 µM [activator, partial curve]

Row | SMILES | Potency
26 | CCOC(=O)CSC1=C(C#N)C(=O)NC(c2ccc(OC)cc2)S1 (stereo not drawn) | inactive
27 | Clc1ccccc1-c1nc2nc3ccccc3nc2n1-c1ccc2c(c1)OCO2 | inconclusive: 14.1 µM [activator, single point]
28 | O=c1ccc2c(OCCCCc3ccccc3)c3ccoc3cc2o1 | active: 5.17 µM
29 | Cc1ccc(Cc2cnc(NC(=O)c3ccco3)s2)cc1 | inactive
30 | Cc1c(CCC(=O)O)c(=O)oc2cc(OCc3ccccc3Br)ccc12 | inactive
31 | O=C(Cc1cn(Cc2cccc(Cl)c2)c2ccccc12)N1CCCCCC1 | inconclusive: 25.1 µM [activator, single point]
32 | Cc1ccc(C(=O)NCc2ccco2)cc1S(=O)(=O)N1CCCCC1 | inactive
33 | COc1ccc(NC(=O)c2sc(N3CCOCC3)nc2-c2ccccc2)c(OC)c1 | inconclusive: 25.1 µM [activator, partial curve]
34 | CS(=O)(=O)Nc1ccc([N+](=O)[O-])cc1Oc1ccccc1 | active: 23.1 µM
35 | CCc1ccc(OCc2nnc(SCCN3CCOCC3)n2C)cc1 | inactive
36 | C=CCNC(=S)N1CCC(C(N)=O)CC1 | inconclusive: 35.5 µM [activator, single point]
37 | CCOC(=O)C1=C(C)NC(=S)NC1c1ccc(-c2cccc(Cl)c2C)o1 (stereo not drawn) | inactive
38 | CC(C)Cn1c(SCC(=O)Nc2cccc(S(N)(=O)=O)c2)nc2ccccc2c1=O | inactive
39 | CCSc1nc2ccccc2c(=O)n1CCc1ccc(OC)c(OC)c1 | inconclusive: 12.6 µM [activator, partial curve]
40 | Nc1nnc(SCC(=O)Nc2cc(C(F)(F)F)ccc2N2CCOCC2)s1 | inconclusive: 6.31 µM [activator, single point]
41 | CC1CCc2c(sc(NC(=O)c3cccs3)c2C(=O)O)C1 (stereo not drawn) | inactive
42 | Nc1nncn1C(=O)c1ccccc1Cl | inactive
43 | Cn1cc(Cl)c(C(=O)NC2CCCCCC2)n1 | inactive
44 | Cc1ccc(C(=O)Nc2sc3c(c2C(=O)O)CCCCC3)o1 | inconclusive: 5.62 µM [activator, partial curve]
45 | Cc1ccc(NC(=O)CN(C)C(=O)c2cc(-c3ccccc3)nn2-c2ccccc2)cc1 | inconclusive: 14.1 µM [activator, single point]
46 | CCCC(=O)Nc1ccc2c(c1)C(=O)N(CCC(=O)O)C2=O | inactive
47 | Cc1cccc(COCC(Cc2ccccc2)N2CCN(C(=O)c3cc(Cl)cc(Cl)c3)CCC2=O)c1 (stereo not drawn) | inconclusive: 17.8 µM [activator, single point]
48 | Nc1ncnc2nc(-c3ccc(N4CCOCC4)nc3)cc(-c3cccc(Br)c3)c12 | inconclusive: 14.6 µM [activator, partial curve]
49 | COCCn1c(SCC(=O)N2CCCc3ccccc32)nc2ccccc2c1=O | inconclusive: 35.5 µM [activator, partial curve]
50 | NC(=S)NC(=O)/C=C/c1ccccc1 | inactive

Some of the entries so far, as comma-separated lines.
Row,SMILES,Potency
29,Cc1ccc(Cc2cnc(NC(=O)c3ccco3)s2)cc1,inactive
30,Cc1c(CCC(=O)O)c(=O)oc2cc(OCc3ccccc3Br)ccc12,inactive
31,O=C(Cc1cn(Cc2cccc(Cl)c2)c2ccccc12)N1CCCCCC1,"inconclusive: 25.1 µM [activator, single point]"
32,Cc1ccc(C(=O)NCc2ccco2)cc1S(=O)(=O)N1CCCCC1,inactive
33,COc1ccc(NC(=O)c2sc(N3CCOCC3)nc2-c2ccccc2)c(OC)c1,"inconclusive: 25.1 µM [activator, partial curve]"
34,CS(=O)(=O)Nc1ccc([N+](=O)[O-])cc1Oc1ccccc1,active: 23.1 µM
35,CCc1ccc(OCc2nnc(SCCN3CCOCC3)n2C)cc1,inactive
36,C=CCNC(=S)N1CCC(C(N)=O)CC1,"inconclusive: 35.5 µM [activator, single point]"
37,CCOC(=O)C1=C(C)NC(=S)NC1c1ccc(-c2cccc(Cl)c2C)o1 (stereo not drawn),inactive
38,CC(C)Cn1c(SCC(=O)Nc2cccc(S(N)(=O)=O)c2)nc2ccccc2c1=O,inactive
39,CCSc1nc2ccccc2c(=O)n1CCc1ccc(OC)c(OC)c1,"inconclusive: 12.6 µM [activator, partial curve]"
40,Nc1nnc(SCC(=O)Nc2cc(C(F)(F)F)ccc2N2CCOCC2)s1,"inconclusive: 6.31 µM [activator, single point]"
41,CC1CCc2c(sc(NC(=O)c3cccs3)c2C(=O)O)C1 (stereo not drawn),inactive
42,Nc1nncn1C(=O)c1ccccc1Cl,inactive
43,Cn1cc(Cl)c(C(=O)NC2CCCCCC2)n1,inactive
44,Cc1ccc(C(=O)Nc2sc3c(c2C(=O)O)CCCCC3)o1,"inconclusive: 5.62 µM [activator, partial curve]"
45,Cc1ccc(NC(=O)CN(C)C(=O)c2cc(-c3ccccc3)nn2-c2ccccc2)cc1,"inconclusive: 14.1 µM [activator, single point]"
46,CCCC(=O)Nc1ccc2c(c1)C(=O)N(CCC(=O)O)C2=O,inactive
47,Cc1cccc(COCC(Cc2ccccc2)N2CCN(C(=O)c3cc(Cl)cc(Cl)c3)CCC2=O)c1 (stereo not drawn),"inconclusive: 17.8 µM [activator, single point]"
48,Nc1ncnc2nc(-c3ccc(N4CCOCC4)nc3)cc(-c3cccc(Br)c3)c12,"inconclusive: 14.6 µM [activator, partial curve]"

Later entries

Row | SMILES | Potency
51 | COc1ccc(-c2csc(Nc3cc(C)ccn3)n2)cc1OC | inactive
52 | Cc1cc(S(=O)(=O)Nc2ccc(C(=O)NCC(c3ccco3)N(C)C)cc2)ccc1F (stereo not drawn) | inactive
53 | Cc1ccccc1CNC(=O)c1ccc2ccccc2n1 | inconclusive: 12.6 µM [activator, partial curve]
54 | C/C(=N\NC(=S)NCc1ccccc1)c1ccc(C(C)(C)C)cc1 | inconclusive: 15.8 µM [activator, single point]
55 | S=C(NCc1ccco1)N1CCN(c2cccc(Cl)c2)CC1 | inactive
56 | Cc1ccc(C)c(NC(=O)c2nc(-c3ccccc3)n(-c3ccccc3)n2)c1 | inconclusive: 12.6 µM [activator, partial curve]
57 | Cc1ccc(-c2csc3ncnc(-n4nnc5ccccc54)c23)cc1 | inconclusive: 15.8 µM [activator, single point]
58 | Cc1ccccc1C(=O)N1CCN(c2ccc(NC(=O)c3cccc(OC(C)C)c3)cc2)CC1 | inactive
59 | COC(=O)c1c(NC(NC(=O)C(C)C)C(Cl)(Cl)Cl)sc2c1CCCC2 (stereo not drawn) | inconclusive: 15.8 µM [activator, single point]
60 | COc1ccccc1N(C(=O)c1ccncc1)c1nc(-c2ccc([N+](=O)[O-])cc2)cs1 | inconclusive: 31.6 µM [activator, single point]
61 | O=[N+]([O-])c1ccc(-c2cnc(SC(c3ccccc3)c3ccccc3)[nH]2)cc1 | inconclusive: 3.16 µM [activator, partial curve]
62 | O=C(CSCc1ccc(Br)cc1)N1CCOCC1 | inconclusive: 35.5 µM [activator, single point]
63 | Cc1ccc(C)c(S(=O)(=O)Nc2ccc3sc(C)nc3c2)c1 | inconclusive: 14.1 µM [activator, partial curve]
64 | CSc1ccc(S(=O)(=O)N2CCN(Cc3ccc4c(c3)OCO4)CC2)cc1 | inconclusive: 22.4 µM [activator, partial curve]
65 | CCCCN(CC)C(=O)c1cc2c(=O)[nH]c3ccc(C)cc3c2s1 | inconclusive: 35.5 µM [activator, single point]
66 | CCCCC(=O)Nc1nc2c(s1)COc1ccccc1-2 | inconclusive: 35.5 µM [activator, single point]
67 | O=C(O)c1ccc(NCCC2=CCCCC2)c([N+](=O)[O-])c1 | inconclusive: 3.98 µM [activator, single point]
68 | COC(=O)C1=C(C(=O)OC)[C@@H]2N(C)c3ccccc3[C@@]23C[C@@H](C(=O)OC)N(C(=O)c2cc(C)oc2C)C3=N1 | inconclusive: 1.58 µM [activator, partial curve]
69 | Cc1ccc(C(=O)O)cc1-n1c(=O)n(Cc2ccccc2)c(=O)c2[nH]cnc21 | inconclusive: 35.5 µM [activator, single point]
70 | CCC(=O)/C=C1\Sc2ccccc2N1CC | inconclusive: 35.5 µM [activator, single point]
71 | O=C(COc1ccccc1-c1ccccc1)NCc1cccc(Cl)c1 | inconclusive: 14.1 µM [activator, partial curve]
72 | S=c1nc2ccccc2c2nc(-c3ccccc3)[nH]n12 | inconclusive: 11.2 µM [activator, partial curve]
73 | CCC(C)[C@H](NC(=O)NCc1cccc(OC)c1)C(=O)OC (stereo partly drawn) | inconclusive: 15.8 µM [activator, partial curve, poor fit]

Ordered by molar mass (falling): 3 of the compounds above
Row | SMILES | Potency
30 | Cc1c(CCC(=O)O)c(=O)oc2cc(OCc3ccccc3Br)ccc12 | inactive
26 | CCOC(=O)CSC1=C(C#N)C(=O)NC(c2ccc(OC)cc2)S1 (stereo not drawn) | inactive
10 | Cc1csc(NC(=O)CCCSc2nc3ccccc3s2)n1 | inconclusive: 22.4 µM [activator, single point]
